Measurements as given in patent publication US6835370B2, “Diagnosis and treatment of malignant neoplasms” (Rhode Island Hospital, priority 1999, dated 2004).
At least one compound was matched to its structure with a doubt left.

System: AAH in PNET2 cells
Experiment: Western blot of AAH expression in treated PNET2 cells
Assay type: cell-based, Human
Conditions: 24 hours after exposure, 10 μM retinoic acid or 100 nM PMA
Procedure: Studies were conducted to determine whether AAH expression was modulated with neurite (filopodia) extension (sprouting) as occurs with invasive growth of malignant neoplasms. Human PNET2 CNS-derived and SH-Sy5y neuroblastoma cells were cultured and stimulated for 0, 1, 2, 3, 5, or 7 days with 100 nM phorbol […] or 10 μM retinoic acid to induce sprouting. […] For both studies, AAH expression was evaluated by Western blot analysis using the an HAAH-specific antibody.
Cells grown in 10 cm^2 dishes were lysed and homogenized in a standard radioimmunoprecipitation assay RIPA buffer containing protease and phosphatase inhibitors. The supernatants collected after centrifuging the samples at 12,000×g for 10 minutes to remove insoluble debris were used for Western blot analysis. Protein concentration was measured using the BCA assay (Pierce Chemical Co, Rockford, Ill.). Samples containing 60 μg of protein were electrophoresed in sodium dodecyl sulfate polyacrylamide gels (SDS-PAGE) and subjected to Western blot analysis. Replicate blots were probed with the individual antibodies. Immunoreactivity was detected with horseradish peroxidase conjugated IgG (Pierce Chemical Co, Rockford, Ill.) and enhanced chemiluminescence reagents. To quantify the levels of protein expression, non-saturated autoradiographs were subjected to volume densitometry using NIH Image software, version 1.6. […]

CC1=C(/C=C/C(C)=C/C=C/C(C)=C/C(=O)O)C(C)(C)CCC1 [RA, retinoic acid]
increase in levels of AAH protein: at least two-fold
